Laboratory results taken from paper PMC11997217, “Inactivation of GH3.5 by COP1-mediated K63-linked ubiquitination promotes seedling hypocotyl elongation” (Nature Communications, 2025).

What was measured:
Test in all cases: split reporter; firefly luciferase complementation imaging (LCI) in Nicotiana benthamiana leaves; COP1 forms fused with cLUC, GH3.5 with nLUC; 3 d in the dark after infiltration
[1] = molecular target: COP1-ΔRING fused with cLUC (Arabidopsis)
[2] = molecular target: COP1-ΔWD40 fused with cLUC (Arabidopsis)
[3] = molecular target: COP1-ΔCoil fused with cLUC (Arabidopsis)

Measured: binding

B1: GST-GH3.5 (enzyme, Arabidopsis, UniProt O81829 1-612, looked up)
chain: MPEAPKKESLEVFDLTLDQKNKQKLQLIEELTSNADQVQRQVLEEILTRNADVEYLRRHDLNGRTDRETFKNIMPVITYEDIEPEINRIANGDKSPILSSKPISEFLTSSGTSGGERKLMPTIEEELDRRSLLYSLLMPVMSQFVPGLENGKGMYFLFIKSESKTPGGLPARPVLTSYYKSSHFKERPYDPYTNYTSPNETILCSDSYQSMYSQMLCGLCQHQEVLRVGAVFASGFIRAIKFLEKHWIELVRDIRTGTLSSLITDPSVREAVAKILKPSPKLADFVEFECKKSSWQGIITRLWPNTKYVDVIVTGTMSQYIPTLDYYSNGLPLVCTMYASSECYFGVNLRPLCKPSEVSYTLIPSMAYFEFLPVHRNNGVTNSINLPKALTEKEQQELVDLVDVKLGQEYELVVTTYAGLCRYRVGDLLRVTGFKNKAPQFSFICRKNVVLSIDSDKTDEVELQNAVKNAVTHLVPFDASLSEYTSYADTSSIPGHYVLFWELCLDGNTPIPPSVFEDCCLAVEESFNTVYRQGRVSDKSIGPLEIKIVEPGTFDKLMDYAISLGASINQYKTPRCVKFAPIIELLNSRVVDSYFSPKCPKWVPGHKQWGSN
notes: the GH3.5 CDS inserted into BamHI/EcoRI of pGEX4T-1; also called GRETCHEN HAGEN 3.5; source: E. coli BL21, purified (Glutathione Sepharose 4B); not shown: GST, N-terminal, kept
binds: all assays above

Results are given in words; binding and its absence hold for the method and conditions named. In cells and extracts the contact can be indirect. A result given as binding can be weak or reduced; the word gives no strength. Tags and fused reporters may be left off the sequences shown.
